Results: PMC8909987
Results are given in words; binding and its absence hold for the method and conditions named. Binding calls can cover weak binding; strength is not graded here. For part of these data: Binding seen in cells or lysates may run through a third protein.

Amino acid sequences for entries named in this document (tags omitted). A change or cut given only in a name is not applied to a line headed by its entry. Residues count along the entry.
UniProt O53281: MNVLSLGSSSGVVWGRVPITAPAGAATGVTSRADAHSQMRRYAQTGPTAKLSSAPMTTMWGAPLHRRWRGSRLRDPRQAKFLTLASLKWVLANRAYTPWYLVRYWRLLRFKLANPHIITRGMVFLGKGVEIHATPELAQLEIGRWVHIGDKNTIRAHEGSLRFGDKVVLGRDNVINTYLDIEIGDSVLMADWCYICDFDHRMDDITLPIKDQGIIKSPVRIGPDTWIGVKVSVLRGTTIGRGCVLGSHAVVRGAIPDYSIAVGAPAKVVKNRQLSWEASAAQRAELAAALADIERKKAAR
UniProt Q61830, residues 20-1456: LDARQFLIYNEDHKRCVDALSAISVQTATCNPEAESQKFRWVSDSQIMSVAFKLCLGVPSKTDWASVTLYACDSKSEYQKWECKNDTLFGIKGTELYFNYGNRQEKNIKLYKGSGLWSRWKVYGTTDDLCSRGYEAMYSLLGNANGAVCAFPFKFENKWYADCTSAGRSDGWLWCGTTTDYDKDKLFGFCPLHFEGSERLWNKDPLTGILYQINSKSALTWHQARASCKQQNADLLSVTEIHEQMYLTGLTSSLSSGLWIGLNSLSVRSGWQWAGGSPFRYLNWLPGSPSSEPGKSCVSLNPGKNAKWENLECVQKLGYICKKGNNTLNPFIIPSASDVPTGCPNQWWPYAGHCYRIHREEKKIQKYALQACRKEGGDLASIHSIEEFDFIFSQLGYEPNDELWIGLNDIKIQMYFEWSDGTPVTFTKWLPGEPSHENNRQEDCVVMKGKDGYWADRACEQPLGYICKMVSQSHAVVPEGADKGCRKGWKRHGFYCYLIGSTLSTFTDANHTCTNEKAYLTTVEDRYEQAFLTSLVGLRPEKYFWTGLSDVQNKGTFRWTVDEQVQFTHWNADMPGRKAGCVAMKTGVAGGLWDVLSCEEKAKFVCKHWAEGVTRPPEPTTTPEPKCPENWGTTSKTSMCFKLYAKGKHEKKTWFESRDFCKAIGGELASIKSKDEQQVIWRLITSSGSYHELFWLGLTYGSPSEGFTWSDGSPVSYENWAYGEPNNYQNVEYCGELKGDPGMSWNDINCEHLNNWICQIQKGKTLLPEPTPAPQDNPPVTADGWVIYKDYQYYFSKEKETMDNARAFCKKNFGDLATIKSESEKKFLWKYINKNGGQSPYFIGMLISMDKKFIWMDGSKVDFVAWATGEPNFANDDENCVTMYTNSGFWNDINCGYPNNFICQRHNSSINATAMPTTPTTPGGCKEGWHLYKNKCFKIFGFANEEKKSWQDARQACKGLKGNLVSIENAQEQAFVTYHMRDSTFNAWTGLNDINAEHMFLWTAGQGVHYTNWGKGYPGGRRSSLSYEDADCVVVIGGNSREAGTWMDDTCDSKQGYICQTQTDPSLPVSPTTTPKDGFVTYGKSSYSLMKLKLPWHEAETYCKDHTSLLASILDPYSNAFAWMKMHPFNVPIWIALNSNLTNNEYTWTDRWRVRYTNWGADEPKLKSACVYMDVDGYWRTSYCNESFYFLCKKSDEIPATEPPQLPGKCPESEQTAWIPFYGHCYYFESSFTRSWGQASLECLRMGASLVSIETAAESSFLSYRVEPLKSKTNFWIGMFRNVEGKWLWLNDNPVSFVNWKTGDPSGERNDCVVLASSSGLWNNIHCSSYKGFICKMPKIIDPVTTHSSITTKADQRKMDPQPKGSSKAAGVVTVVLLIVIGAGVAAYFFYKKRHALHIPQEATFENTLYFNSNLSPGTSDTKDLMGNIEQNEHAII

Columns and labels:
[1] = biological target: Mycobacterium tuberculosis acetyltransferase Rv3034c, His-tagged recombinant protein (Mycobacterium tuberculosis H37Rv) (UniProt O53281); assay: pull-down; only the target purified
[2] = biological target: Mycobacterium tuberculosis acetyltransferase Rv3034c, His-tagged recombinant protein (Mycobacterium tuberculosis H37Rv) (UniProt O53281); assay: co-incubation, SDS-PAGE and Western blot; only the target purified
[3] = biological target: Mycobacterium tuberculosis acetyltransferase Rv3034c, His-tagged recombinant protein (Mycobacterium tuberculosis H37Rv) (UniProt O53281); assay: native gel or EMSA; only the target purified

Measured: binding

macrophage mannose receptor (MR) (from UniProt Q61830 20-1456)
binds: all assays above
